{"sequences": {"note": "Chains of the proteins cited; added tags and fusions are not shown.", "UniProt P18054, whole entry, looked up": "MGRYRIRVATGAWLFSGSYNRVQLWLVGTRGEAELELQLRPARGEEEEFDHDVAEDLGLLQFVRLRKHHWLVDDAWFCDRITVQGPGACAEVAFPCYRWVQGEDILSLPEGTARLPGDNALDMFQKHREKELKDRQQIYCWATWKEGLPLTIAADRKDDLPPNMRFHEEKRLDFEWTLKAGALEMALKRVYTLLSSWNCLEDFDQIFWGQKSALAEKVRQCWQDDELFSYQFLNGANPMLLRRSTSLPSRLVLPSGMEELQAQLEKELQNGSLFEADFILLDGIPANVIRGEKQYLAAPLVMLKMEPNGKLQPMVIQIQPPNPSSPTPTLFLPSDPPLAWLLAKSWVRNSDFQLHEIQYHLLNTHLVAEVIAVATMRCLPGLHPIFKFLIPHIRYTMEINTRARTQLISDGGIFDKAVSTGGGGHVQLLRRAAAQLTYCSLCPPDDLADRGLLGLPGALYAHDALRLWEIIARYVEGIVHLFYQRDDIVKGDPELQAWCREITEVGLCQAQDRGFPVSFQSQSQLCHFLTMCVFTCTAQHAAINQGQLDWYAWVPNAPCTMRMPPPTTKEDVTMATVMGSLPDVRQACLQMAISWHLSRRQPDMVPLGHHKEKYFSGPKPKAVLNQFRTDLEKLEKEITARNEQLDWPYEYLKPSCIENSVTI"}, "source": "PubChem BioAssay AID1671190", "about": "(National Center for Advancing Translational Sciences (NCATS), 2021)", "note": "Where “and” joins values, the source holds several entries; their conditions need not be identical. Equal values may be shown once. The campaign covered roughly 580,000 compounds. About 6,100 (1.1%) were called active. Inconclusive means that the source gave no clear call. Such entries were picked first, then a sample of the others. Calls come from the whole dose curve; as a rule, active = well fitted inhibition curve with a large enough effect; inconclusive = small, poorly fitted or top-dose-only effect, or another doubt; inactive = no such curve, though single readings can be large or run the other way. A potency beside an inconclusive call is a rough fit, not a confirmed value. % is set by controls: 0 for no effect and ±100 for the full control effect; potency is the fitted concentration of half-maximal effect.", "data": [{"target": "Polyunsaturated fatty acid lipoxygenase ALOX12 (Homo sapiens) (UniProt P18054)", "test": "Primary qHTS assay for inhibitors of human arachidonate 12S-lipoxygenase (ALOX12): Round 2", "settings": "purified 12hLO, xylenol orange hydroperoxide absorbance; activity change, negative = inhibition: at 108 µM (top of the series) unless noted", "method_in_brief": "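Purified human 12hLO at 150 nM in 25 mM Hepes, 0.01% Triton X-100, pH 7.0, preincubated 15 min at room temperature with compound. Reaction started with 40 uM arachidonic acid, 30 min at room temperature. Hydroperoxide measured by Fe-xylenol orange, 573/405 nm absorbance ratio.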", "values": [{"compound": "Cc1cc(C)nc(NC2=NCC(=O)N2c2cc(Cl)cc(Cl)c2)n1", "Potency": "inconclusive: 50.1 µM [inhibitor, partial curve, poor fit]"}, {"compound": "COc1cc(C(=S)NC2CCCCC2)ccc1O", "Potency": "inconclusive: 63.1 µM [inhibitor, partial curve, poor fit]"}, {"compound": "CCO/N=C(/C)c1c(O)c(C)c(-c2ccccc2)n(-c2ccccc2)c1=O", "Potency": "inconclusive: 31.6 µM [inhibitor, partial curve, poor fit]"}, {"compound": "Oc1c(C=NCc2ccc(F)cc2)[nH]c2ccc(Br)c(Cl)c12", "Potency": "active: 12.6 µM"}, {"compound": "COc1ccc(N=c2oc3cc(O)ccc3cc2C(=O)Nc2ccccn2)cc1OC", "activity change, negative = inhibition": "inactive: -16.5%"}, {"compound": "O=C(NCc1ccccc1)C(c1cccc2ccccc12)n1c(=O)c(-c2cc3ccccc3[nH]2)nc2ccccc21", "note": "(configuration not stated)", "activity change, negative = inhibition": "inactive: -12.5%"}, {"compound": "CCOc1ccc(-n2cc(-c3ccccc3)c3c(N4CCN(c5ccccc5OC)CC4)ncnc32)cc1", "Potency": "inconclusive: 0.0891 µM [inhibitor, full curve, poor fit]"}, {"compound": "Cc1nn(C)c(C)c1CCC(=O)N1CCc2[nH]cnc2C1C(=O)O", "note": "(configuration not stated)", "Potency": "inconclusive: 1.78 µM [inhibitor, full curve]"}, {"compound": "CC1CCCN(C(=O)COC(=O)COc2ccc(Cl)cc2)C1", "note": "(configuration not stated)", "activity change, negative = inhibition": "inactive: -1.86%"}, {"compound": "O=c1cc(-c2ccc(O)c(O)c2)oc2cc(O)cc(O)c12", "Potency": "inconclusive: 3.06 µM [inhibitor, partial curve, poor fit] and inconclusive: 10 µM [inhibitor, full curve, poor fit] and active: 10 µM"}, {"compound": "COc1ccc(C(=O)NC(=S)Nc2ccc(CN3CCOCC3)cc2)cc1Cl", "Potency": "active: 31.6 µM"}, {"compound": "CCCCCC(=O)NC(=S)Nc1ccc(NC(=O)c2ccco2)cc1", "Potency": "inconclusive: 2.82 µM [inhibitor, full curve, poor fit]"}, {"compound": "COc1cccc(-c2nc(CS(=O)CC(=O)O)c(C)o2)c1", "note": "(configuration not stated)", "Potency": "inconclusive: 28.2 µM [inhibitor, partial curve, poor fit]"}, {"compound": "Cc1cc(=O)[nH]c2nnnn12", "Potency": "inconclusive: 56.2 µM [inhibitor, partial curve, poor fit]"}, {"compound": "CN(CC(=O)Nc1ccc(N2CCOCC2)cc1)C(=O)CSc1ccc(F)cc1", "Potency": "inconclusive: 63.1 µM [inhibitor, partial curve, poor fit]"}, {"compound": "C[C@@H]1CNCCN1c1ccc(N2CCN(Cc3ccccc3)[C@@H](C)C2)c(C#N)c1", "Potency": "inconclusive: 50.1 µM [inhibitor, partial curve, poor fit]"}, {"compound": "C=CCn1c(N)c(C(=O)OC(C)(C)C)c2nc3ccccc3nc21", "Potency": "inconclusive: 31.6 µM [inhibitor, partial curve, poor fit]"}, {"compound": "COc1ccc(CCNCC(O)Cn2c3ccccc3c3ccccc32)cc1OC", "note": "(configuration not stated)", "Potency": "inconclusive: 50.1 µM [inhibitor, partial curve, poor fit]"}, {"compound": "Cc1ccccc1S(=O)(=O)NC1OC(=O)C(Cl)=C1Cl", "note": "(configuration not stated)", "Potency": "inconclusive: 5.01 µM [inhibitor, full curve]"}, {"compound": "COCC(=O)N1CCc2nc(-c3ccccc3)nc(-c3ccc(OC)cc3)c2C1", "Potency": "inconclusive: 50.1 µM [inhibitor, partial curve]"}, {"compound": "Cc1c(Cl)cccc1NC(=O)c1n[nH]c(=O)c2ccccc12", "Potency": "inconclusive: 89.1 µM [inhibitor, single point]"}, {"compound": "Cc1cc(NC(=O)CN2C(=O)NC(c3ccc(Cl)cc3)C3=C2COC3=O)no1", "note": "(configuration not stated)", "Potency": "inconclusive: 20 µM [inhibitor, partial curve, poor fit]"}, {"compound": "O=C1NC2(CCCN(Cc3cccc4ccccc34)C2)Oc2ccccc21", "note": "(configuration not stated)", "Potency": "inconclusive: 56.2 µM [inhibitor, partial curve, poor fit]"}, {"compound": "O=C(O)CC1C(=O)NCCN1Cc1ccccc1Cl", "note": "(configuration not stated)", "Potency": "inconclusive: 2.24 µM [inhibitor, full curve, poor fit]"}, {"compound": "C[N+]1(CCNC(=O)/C=N/O)CCCCC1", "Potency": "active: 6.31 µM"}, {"compound": "CCCOc1ccc(/C(O)=C2/C(=O)C(=O)N(CCN(C)C)C2c2ccncc2)cc1", "note": "(configuration not stated)", "Potency": "inconclusive: 14.1 µM [inhibitor, partial curve, poor fit]"}, {"compound": "Fc1ccc(NC(=S)NCc2ccccn2)cc1", "Potency": "inconclusive: 112 µM [inhibitor, single point]"}, {"compound": "Cc1cccc(NC(=S)NNC(=O)c2cccc(C)c2)c1", "Potency": "inconclusive: 44.7 µM [inhibitor, partial curve, poor fit]"}, {"compound": "COc1ccc(O)c(O)c1/C=C1\\[C@@H](C)CCC2C(C)(C)CCC[C@]12C", "note": "(some centres not stated)", "Potency": "active: 2.24 µM"}, {"compound": "CCOC(=O)C(C(C)=O)C(c1ccc(OCCC(C)C)cc1)C(C(C)=O)C(=O)OCC", "note": "(configuration not stated)", "Potency": "inconclusive: 35.5 µM [inhibitor, partial curve, poor fit]"}, {"compound": "NS(=O)(=O)c1cccc(NC(=O)CSc2nnc(C3CC3)n2-c2ccccc2)c1", "Potency": "inconclusive: 100 µM [inhibitor, partial curve, poor fit]"}, {"compound": "O=C(NCc1cc2n(n1)CCNC2)C(c1ccccc1)C1CCCC1", "note": "(configuration not stated)", "Potency": "inconclusive: 89.1 µM [inhibitor, partial curve, poor fit]"}, {"compound": "CCc1ccc(-n2c(SCc3ccccc3Cl)nc3[nH]ncc3c2=O)cc1", "Potency": "inconclusive: 50.1 µM [inhibitor, partial curve, poor fit]"}, {"compound": "O=C(NCCc1ccc(F)cc1)c1cc2ccccc2[nH]1", "activity change, negative = inhibition": "inactive: -0.589%"}, {"compound": "CC(=O)c1cccc(N=Cc2c(O)ccc3ccccc23)c1", "activity change, negative = inhibition": "inactive: 0.898%"}, {"compound": "CCOc1[nH]n(-c2ccccc2)c(=O)c1C=Nc1ccccc1", "activity change, negative = inhibition": "inactive: 0.86%"}, {"compound": "CN(C)c1ccc(-c2ccnc3c2CC(C)(C(=O)NCc2cccc(Cl)c2)O3)cc1", "note": "(configuration not stated)", "Potency": "inconclusive: 44.7 µM [inhibitor, partial curve, poor fit]"}, {"compound": "C/C(=N/NC(=O)C(O)(c1ccccc1)c1ccccc1)c1ccc([N+](=O)[O-])o1", "Potency": "inconclusive: 20 µM [inhibitor, full curve, poor fit]"}, {"compound": "COc1cccc(CNc2nc(NCc3cccc(OC)c3)n(S(=O)(=O)c3ccccc3)n2)c1", "Potency": "inconclusive: 28.2 µM [inhibitor, partial curve, poor fit]"}, {"compound": "CCNC(=O)COc1ccc(-c2noc(-c3ccccc3)n2)cc1OC", "activity change, negative = inhibition": "inactive: 2.51%"}, {"compound": "Cn1c(CNC(=O)C(Cc2ccccc2)NC(=O)Cc2ccc(Cl)cc2)cc(=O)n(C)c1=O", "note": "(configuration not stated)", "activity change, negative = inhibition": "inactive: 4.65%"}, {"compound": "COC(=O)C1=C(C)N(Cc2ccccc2)C(=O)N[C@H]1c1cccc(F)c1", "Potency": "inconclusive: 126 µM [inhibitor, single point]"}, {"compound": "Cc1ccc(C2=NC(=O)/C(=C/c3cc(O)c(O)c(Br)c3)S2)cc1", "Potency": "inconclusive: 1.41 µM [inhibitor, full curve, poor fit]"}, {"compound": "Cn1cccc1C(=O)N[C@H]1C[C@@H](C(=O)O)N(C(=O)CCC(=O)N2C[C@@H](NC(=O)c3cccs3)C[C@H]2C(=O)O)C1", "Potency": "inconclusive: 14.1 µM [inhibitor, full curve]"}, {"compound": "CC1CCN(CC(=O)N2CCN(c3ccccc3)CC2)CC1", "Potency": "inconclusive: 100 µM [inhibitor, single point]"}, {"compound": "Cc1nc2cc(NC(=O)c3ccc([N+](=O)[O-])s3)ccc2s1", "activity change, negative = inhibition": "inactive: 0%"}, {"compound": "O=C1CN(Cc2ccccc2)C(=NCc2ccco2)S1", "Potency": "inconclusive: 2 µM [inhibitor, full curve, poor fit]"}, {"compound": "Cc1ccc(CN(Cc2ccco2)C(=S)NCC(=O)O)cc1", "Potency": "inconclusive: 50.1 µM [inhibitor, partial curve, poor fit]"}, {"compound": "C=CCn1c(=O)[nH]c2nc3cc(N=CN(C)C)c(C)cc3nc2c1=O", "Potency": "inconclusive: 50.1 µM [inhibitor, partial curve, poor fit]"}, {"compound": "Cc1ccc(C(=O)CSc2nnc(-c3ccco3)n2C)cc1", "activity change, negative = inhibition": "inactive: -15.8%"}, {"compound": "Cc1[nH]n(-c2ccc(Cl)cc2)c(=O)c1/C=N/n1c(C)nc2ccccc2c1=O", "Potency": "inconclusive: 79.4 µM [inhibitor, partial curve, poor fit]"}, {"compound": "CCOc1ccc(C(=O)N2CC(c3nnc(C(C)C)o3)C3(CCOCC3)C2)cc1OCC", "note": "(configuration not stated)", "activity change, negative = inhibition": "inactive: 71.3%"}, {"compound": "CSc1ccc(Cl)c(C(=O)OCC(=O)N2CCNC2=O)c1", "Potency": "inconclusive: 22.4 µM [inhibitor, partial curve, poor fit]"}, {"compound": "Cc1cccc(OCC(=O)Nc2ccc(-c3nc4ccccc4o3)cc2)c1C", "Potency": "inconclusive: 112 µM [inhibitor, partial curve, poor fit]"}, {"compound": "Cc1cccc(NC(=O)CCc2ccccc2)c1", "activity change, negative = inhibition": "inactive: -2.66%"}, {"compound": "CCn1c(=N)n(CCOc2ccc(Br)cc2)c2ccccc21", "Potency": "inconclusive: 50.1 µM [inhibitor, partial curve, poor fit]"}, {"compound": "CC(C)Nc1nc(NC(C)C)nc(C(N)=O)n1", "Potency": "inconclusive: 7.94 µM [inhibitor, partial curve, poor fit]"}, {"compound": "Cc1ccc(C)c(Nc2nc(N)c3ccccc3n2)c1", "Potency": "inconclusive: 50.1 µM [inhibitor, partial curve, poor fit]"}, {"compound": "COc1ccc(C)cc1NS(=O)(=O)c1c(C(=O)N2CCCCCC2)c(C)n(C)c1C", "Potency": "inconclusive: 141 µM [inhibitor, single point]"}, {"compound": "O=C(CSc1nc2c(cnn2-c2ccccc2)c(=O)[nH]1)N1CCOCC1", "activity change, negative = inhibition": "inactive: -30.7%"}, {"compound": "COC(=O)c1ccc(COc2ccc(/C=C(/CC(=O)O)c3nc4ccccc4s3)cc2)cc1", "Potency": "inconclusive: 39.8 µM [inhibitor, partial curve, poor fit]"}, {"compound": "Cc1cc(C)c(S(=O)(=O)N/N=C/c2ccc([N+](=O)[O-])o2)c(C)c1", "Potency": "inconclusive: 35.5 µM [inhibitor, partial curve, poor fit]"}]}]}
